# Assay results: US10590386B2, “Methods and compositions for preparing cardiomyocytes from stem cells and uses thereof” (Insitute of Biophysics, Chinese Academy of Sciences, priority 2010, dated 2020)
# Entries after “also recorded” stand apart in the source; their conditions may differ. At least one compound was matched to its structure with a doubt left.
# Test system: hESC-derived cardiomyocytes
# Assay: Effect of nifedipine on AP duration of hESC-derived cardiomyocytes (patch clamp)
# Format: cell-based, human
# Method: […] to 90 day-old differentiated cultures were washed in a low Ca^2+ solution, and then incubated in an enzyme solution for 20 min at 37° C. The dissociation was completed in KB solution by gently shaking for 40 min at room temperature. The isolated cells were resuspended in DMEM plus 10% FBS, and transferred on 0.1% gelatin-coated glass coverslips, and then kept in an incubator at 37° C., 5% CO2. The composition of the low Ca^2+ solution was (in mM):120 NaCl, 5.4 KCl, 5 MgSO4, 5 Na pyruvate, 20 glucose, 20 taurine, 10 HEPES. The pH was adjusted to 7.3 with NaOH. KB solution contained (in mM): 85 KCl, 30 K2HPO4, 5 MgSO4, 1 EGTA, 2 Na2ATP, 5 Na pyruvate, 20 glucose, 20 taurine, 5 creatine, adjusted to pH 7.3 with KOH.
# Action potentials of cardiomyocytes were recorded in a whole-cell patch clamp configuration, using an Axon 200B amplifier (Axon Instruments) at room temperature. Data were digitized at 20 kHz and filtered at 2 kHz, and were analyzed by PClamp 9.0. Patch pipettes (2-4MΩ resistance) were filled with an intracellular solution containing (in mM) 50 KCl, 60 K-Aspartate, 1 MgCl2, 3 Na2ATP, 10 EGTA, 10 mM HEPES, adjusted to pH 7.3 with KOH. Normal Tyrode's solution was used as an extracellular solution and contained (in mM) 140 NaCl, 5 KCl, 1 CaCl2, 1 MgCl2, 10 glucose, 10 HEPES, adjusted to pH 7.4 with NaOH.
compound,measurement,setting,value
COC(=O)C1=C(C)NC(C)=C(C(=O)OC)C1c1ccccc1[N+](=O)[O-] [nifedipine],effect on duration of atrial-like APs,"myocytes from Noggin+RA-treated cultures, FIG. 4B right",could not be shortened
same,effect on duration of ventricular-like APs,"myocytes from Noggin+RAi-treated cultures, FIG. 4B left",could be shortened; also recorded: greatly reduced
